Reference: paper PMC12375585
These are yes or no findings as the source states them, for the method shown. In cells and extracts the contact can be indirect. Some binding calls cover weakened binding; strength is not graded here. Tags and fused reporters may be left off the sequences shown.

Sequences of proteins named here, by UniProt entry; tags and fusion partners are left off.
UniProt P11142: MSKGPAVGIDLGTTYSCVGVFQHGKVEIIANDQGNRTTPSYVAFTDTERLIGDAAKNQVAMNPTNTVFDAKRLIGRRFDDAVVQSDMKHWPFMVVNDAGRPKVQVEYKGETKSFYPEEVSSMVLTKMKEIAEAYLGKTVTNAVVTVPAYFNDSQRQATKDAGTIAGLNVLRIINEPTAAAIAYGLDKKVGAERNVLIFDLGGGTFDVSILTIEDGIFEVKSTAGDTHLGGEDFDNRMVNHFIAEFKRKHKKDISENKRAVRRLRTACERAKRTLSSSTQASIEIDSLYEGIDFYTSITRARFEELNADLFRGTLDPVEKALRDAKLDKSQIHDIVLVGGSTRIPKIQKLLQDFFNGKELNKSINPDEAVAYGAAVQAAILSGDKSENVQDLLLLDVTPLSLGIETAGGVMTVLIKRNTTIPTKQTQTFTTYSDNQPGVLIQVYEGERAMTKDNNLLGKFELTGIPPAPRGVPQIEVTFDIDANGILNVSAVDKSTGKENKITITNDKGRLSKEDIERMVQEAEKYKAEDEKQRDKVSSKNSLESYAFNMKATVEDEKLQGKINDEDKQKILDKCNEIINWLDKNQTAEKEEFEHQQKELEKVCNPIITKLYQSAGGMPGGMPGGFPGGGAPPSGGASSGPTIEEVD

Molecular target: T1, Flag-tagged full-length GPATCH3 (G-Patch Domain Containing 3) (human) (UniProt Q96I76)
T1 sequence: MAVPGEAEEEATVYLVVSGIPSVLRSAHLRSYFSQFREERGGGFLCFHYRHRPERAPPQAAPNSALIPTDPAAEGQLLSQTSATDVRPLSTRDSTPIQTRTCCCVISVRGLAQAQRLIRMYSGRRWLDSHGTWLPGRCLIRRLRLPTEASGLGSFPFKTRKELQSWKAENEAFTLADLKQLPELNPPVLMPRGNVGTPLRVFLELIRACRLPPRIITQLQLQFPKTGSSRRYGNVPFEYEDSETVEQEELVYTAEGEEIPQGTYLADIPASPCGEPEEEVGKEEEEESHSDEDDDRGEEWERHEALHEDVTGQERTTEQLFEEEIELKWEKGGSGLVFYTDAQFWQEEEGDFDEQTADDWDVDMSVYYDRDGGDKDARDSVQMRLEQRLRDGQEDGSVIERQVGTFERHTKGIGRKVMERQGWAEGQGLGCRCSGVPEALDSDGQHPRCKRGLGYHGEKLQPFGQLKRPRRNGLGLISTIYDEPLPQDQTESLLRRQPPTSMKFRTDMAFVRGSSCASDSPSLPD
Assay: co-IP; Flag-tagged GPATCH3 (full length or truncation mutants) expressed in HEK293T; lysate (25 mM Tris-HCl pH 7.4, 150 mM NaCl, 1% NP-40, 1 mM EDTA, 1 mM EGTA) on anti-Flag M2 magnetic beads, 4°C, 4 h; eluted with 3× Flag peptide; immunoblotting

binding: binds
Substance: HSPA8, endogenous (from UniProt P11142 1-646)
